For two molecules, binding results are on record in publication PMC4409120.

The target of this experiment is T1, endogenous TRAF6 of primary CD8+ CTLs (mouse (endogenous in OT-I CD8+ CTLs)) (UniProt P70196).
T1 sequence: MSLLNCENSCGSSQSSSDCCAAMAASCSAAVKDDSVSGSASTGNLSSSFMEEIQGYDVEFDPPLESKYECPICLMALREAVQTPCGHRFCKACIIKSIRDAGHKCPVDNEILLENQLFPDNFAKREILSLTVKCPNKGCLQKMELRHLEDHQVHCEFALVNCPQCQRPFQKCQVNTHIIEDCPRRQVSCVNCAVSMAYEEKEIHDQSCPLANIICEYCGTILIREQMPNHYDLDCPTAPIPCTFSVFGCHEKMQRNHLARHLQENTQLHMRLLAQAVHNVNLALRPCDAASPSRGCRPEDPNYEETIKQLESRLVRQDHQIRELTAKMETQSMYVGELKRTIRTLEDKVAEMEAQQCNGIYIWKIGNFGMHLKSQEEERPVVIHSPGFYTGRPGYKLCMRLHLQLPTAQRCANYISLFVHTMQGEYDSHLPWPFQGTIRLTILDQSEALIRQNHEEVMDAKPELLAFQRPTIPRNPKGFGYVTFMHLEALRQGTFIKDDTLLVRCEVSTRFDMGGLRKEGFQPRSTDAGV
In words: co-IP.

No constants are given. Whether binding was seen depends on the method and setting. In cells and extracts the contact can be indirect. Some results given as binding are weak or reduced against the parent protein; the word gives no strength.

B1: endogenous TAK1 of primary CD8+ CTLs (protein, UniProt Q62073 1-579)
chain: MSTASAASSSSSSSASEMIEAPSQVLNFEEIDYKEIEVEEVVGRGAFGVVCKAKWRAKDVAIKQIESESERKAFIVELRQLSRVNHPNIVKLYGACLNPVCLVMEYAEGGSLYNVLHGAEPLPYYTAAHAMSWCLQCSQGVAYLHSMQPKALIHRDLKPPNLLLVAGGTVLKICDFGTACDIQTHMTNNKGSAAWMAPEVFEGSNYSEKCDVFSWGIILWEVITRRKPFDEIGGPAFRIMWAVHNGTRPPLIKNLPKPIESLMTRCWSKDPSQRPSMEEIVKIMTHLMRYFPGADEPLQYPCQYSDEGQSNSATSTGSFMDIASTNTSNKSDTNMEQVPATNDTIKRLESKLLKNQAKQQSESGRLSLGASRGSSVESLPPTSEGKRMSADMSEIEARIVATAGNGQPRRRSIQDLTVTGTEPGQVSSRSSSPSVRMITTSGPTSEKPARSHPWTPDDSTDTNGSDNSIPMAYLTLDHQLQPLAPCPNSKESMAVFEQHCKMAQEYMKVQTEIALLLQRKQELVAELDQDEKDQQNTSRLVQEHKKLLDENKSLSTYYQQCKKQLEVIRSQQQKRQGTS
For B1, the binding entry is “binds”.

B2: endogenous ADAP of primary CD8+ CTLs (protein, UniProt O35601 1-819)
chain: MAKFNTGSNPTEEAATSSRPFKVAGQSSPSGIQSRKNLFDNQGNASPPAGPSSMPKFGTTKPPLAAKPTYEEKPEKEPKPPFLKPTGGSPRFGTQPNSVSRDPEVKVGFLKPVSPKPTSLTKEDSKPVVLRPPGNKLHNLNQESDLKTPGPKPGPAPPVPENELKPGFSKVAGAKSKFMPAAQDTDSKPRFPRHTFGQKPSLSTEDSQEENTSKNVPVQKGSPVQLGAKSKGAPFKPPKEDPEDKDHGAPSSPFPGVVLKPAASRGSPGLSKNFEEKKEDRKTDLAKNIFLNKLNQEEPARFPKAPSKLTAGTPWGQSQEKEGDKNSATPKQKALPPLSVLGPPPPKPNRPPNVDLTRFRKADSANSATKSQTPYSTTSLPPPPPTHPASQPPLPASHPAHPPVPSLPPRNIKPPLDLKHPINDENQDGVMHSDGTGNLEEEQESEGETYEDIDSSKERDKKREKEEKKRLELERKEQKEREKKEQELKKKFKLTGPIQVIHHAKACCDVKGGKNELSFKQGEDIEIIRITDNPEGKWLGRTARGSYGYIKTTAVEIDYDSLKRKKNSLNAVPPRLVEDDQDVYDDVAEQDAPNSHGQSGSGGMFPPPPTDDEIYDGIEEEDDDDGSVPQVDEKTNAWSWGILKMLKGKDDRKKSIREKPKVSESDNNEGSSLPSQHKQLDVGEEVYDDVDASDFPPPPAEMSQGMSVGRAKTEEKDPKKLKKQEKEEKDLRKKFKYDGEIRVLYSTKVASSLTSKKWGARDLQIKPGESLEVIQSTDDTKVLCRNEEGKYGYVLRSYLVDNDGEIYDDIADGCIYDND
In the case of B2, the binding entry is “binds”.
